For assay [1], the target named is β-catenin (human (endogenous in MDA-MB-231)) (UniProt P35222). As to the kind of experiment: co-IP; MDA-MB-231 cells transfected with OTULIN WT or Y56D, MG132 (10 µM) 8 h, then MG132 with Dox (2 µg/ml) 8 h; endogenous HOIP and β-catenin.
The next assay has as its target Flag-β-catenin WT (UniProt P35222). The experiment in a line: co-IP; HEK293T cells transfected with Flag-β-catenin (WT or mutants), alone or with HA-OTULIN (WT or mutants); anti-Flag antibody; MG132 (10 µM) 16 h before harvest for the OTULIN panel.
In assay [2] the target is β-catenin (human (endogenous in MDA-MB-231)) (UniProt P35222). The experiment in a line: co-IP; endogenous proteins of MDA-MB-231 lysates (IP lysis buffer: 20 mM Tris pH 7.0, 150 mM NaCl, 0.5% Nonidet P-40), 2 μg primary antibody (anti-β-catenin, anti-OTULIN) and protein G-Sepharose, 4 °C overnight; cells untreated or treated with Dox (2 µg/ml), MG132 (10 µM), Gliotoxin (1 µM), Imatinib (10 µM) or Nu7441 (10 µM); ABL1-KO cells.

Sequences of proteins named here, by UniProt entry; tags and fusion partners are left off. A change or cut given only in a name is not applied to a line headed by its entry.
UniProt P35222: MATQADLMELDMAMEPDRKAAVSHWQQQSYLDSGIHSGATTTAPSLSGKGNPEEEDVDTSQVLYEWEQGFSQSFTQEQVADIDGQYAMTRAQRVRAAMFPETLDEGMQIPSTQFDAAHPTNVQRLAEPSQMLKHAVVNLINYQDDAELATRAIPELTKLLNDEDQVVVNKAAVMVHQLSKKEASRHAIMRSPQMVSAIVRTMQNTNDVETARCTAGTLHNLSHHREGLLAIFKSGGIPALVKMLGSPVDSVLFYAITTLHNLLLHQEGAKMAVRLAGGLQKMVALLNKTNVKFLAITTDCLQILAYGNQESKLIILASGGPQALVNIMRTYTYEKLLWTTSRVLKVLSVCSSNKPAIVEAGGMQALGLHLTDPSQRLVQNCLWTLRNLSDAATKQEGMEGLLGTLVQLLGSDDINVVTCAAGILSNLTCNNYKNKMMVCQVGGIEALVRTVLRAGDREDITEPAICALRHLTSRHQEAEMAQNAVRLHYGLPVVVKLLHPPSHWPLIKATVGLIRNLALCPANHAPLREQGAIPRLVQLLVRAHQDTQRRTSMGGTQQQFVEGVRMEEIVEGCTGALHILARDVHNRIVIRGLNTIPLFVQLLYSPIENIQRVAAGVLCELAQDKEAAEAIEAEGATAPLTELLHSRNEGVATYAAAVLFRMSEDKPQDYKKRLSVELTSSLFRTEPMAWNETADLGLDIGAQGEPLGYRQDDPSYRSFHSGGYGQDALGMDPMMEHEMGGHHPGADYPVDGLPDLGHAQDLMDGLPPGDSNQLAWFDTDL
UniProt Q96BN8: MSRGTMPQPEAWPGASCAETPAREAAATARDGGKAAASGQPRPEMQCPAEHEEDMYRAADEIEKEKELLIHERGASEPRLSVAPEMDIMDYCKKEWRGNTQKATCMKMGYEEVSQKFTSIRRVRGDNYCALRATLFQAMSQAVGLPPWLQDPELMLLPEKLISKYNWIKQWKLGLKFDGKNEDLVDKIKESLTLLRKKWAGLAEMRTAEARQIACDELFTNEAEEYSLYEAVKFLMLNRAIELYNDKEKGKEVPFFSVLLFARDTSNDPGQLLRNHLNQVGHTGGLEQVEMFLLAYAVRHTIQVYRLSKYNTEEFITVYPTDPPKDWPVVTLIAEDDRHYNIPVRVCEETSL
UniProt P00519: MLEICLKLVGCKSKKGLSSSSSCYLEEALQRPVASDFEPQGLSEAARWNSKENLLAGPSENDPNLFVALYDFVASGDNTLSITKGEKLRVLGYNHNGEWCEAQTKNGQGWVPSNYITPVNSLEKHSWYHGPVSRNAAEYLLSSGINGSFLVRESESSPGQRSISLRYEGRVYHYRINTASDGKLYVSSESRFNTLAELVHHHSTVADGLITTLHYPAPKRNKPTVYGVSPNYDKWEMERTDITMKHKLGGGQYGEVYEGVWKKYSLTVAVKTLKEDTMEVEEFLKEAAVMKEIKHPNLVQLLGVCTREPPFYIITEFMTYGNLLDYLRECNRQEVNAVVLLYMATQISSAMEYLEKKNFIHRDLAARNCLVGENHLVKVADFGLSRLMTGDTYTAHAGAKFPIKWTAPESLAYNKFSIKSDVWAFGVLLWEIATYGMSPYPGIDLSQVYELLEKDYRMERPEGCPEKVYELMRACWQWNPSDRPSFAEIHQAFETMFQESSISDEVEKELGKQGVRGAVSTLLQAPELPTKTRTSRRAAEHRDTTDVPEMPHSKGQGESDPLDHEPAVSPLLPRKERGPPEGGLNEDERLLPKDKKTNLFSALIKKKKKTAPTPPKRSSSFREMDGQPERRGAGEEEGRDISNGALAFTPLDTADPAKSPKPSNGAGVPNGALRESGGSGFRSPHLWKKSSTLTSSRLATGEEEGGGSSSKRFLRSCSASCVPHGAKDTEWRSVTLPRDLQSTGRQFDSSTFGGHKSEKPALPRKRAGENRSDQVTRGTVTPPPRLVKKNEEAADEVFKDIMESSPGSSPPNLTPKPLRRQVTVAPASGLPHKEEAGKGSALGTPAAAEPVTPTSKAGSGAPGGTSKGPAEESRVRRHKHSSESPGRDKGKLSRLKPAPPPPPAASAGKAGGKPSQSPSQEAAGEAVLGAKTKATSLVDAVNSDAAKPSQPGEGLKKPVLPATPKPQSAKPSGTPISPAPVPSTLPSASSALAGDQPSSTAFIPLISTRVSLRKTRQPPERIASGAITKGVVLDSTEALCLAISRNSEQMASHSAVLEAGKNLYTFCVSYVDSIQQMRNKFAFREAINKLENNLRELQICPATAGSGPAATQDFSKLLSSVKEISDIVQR
UniProt Q96EP0: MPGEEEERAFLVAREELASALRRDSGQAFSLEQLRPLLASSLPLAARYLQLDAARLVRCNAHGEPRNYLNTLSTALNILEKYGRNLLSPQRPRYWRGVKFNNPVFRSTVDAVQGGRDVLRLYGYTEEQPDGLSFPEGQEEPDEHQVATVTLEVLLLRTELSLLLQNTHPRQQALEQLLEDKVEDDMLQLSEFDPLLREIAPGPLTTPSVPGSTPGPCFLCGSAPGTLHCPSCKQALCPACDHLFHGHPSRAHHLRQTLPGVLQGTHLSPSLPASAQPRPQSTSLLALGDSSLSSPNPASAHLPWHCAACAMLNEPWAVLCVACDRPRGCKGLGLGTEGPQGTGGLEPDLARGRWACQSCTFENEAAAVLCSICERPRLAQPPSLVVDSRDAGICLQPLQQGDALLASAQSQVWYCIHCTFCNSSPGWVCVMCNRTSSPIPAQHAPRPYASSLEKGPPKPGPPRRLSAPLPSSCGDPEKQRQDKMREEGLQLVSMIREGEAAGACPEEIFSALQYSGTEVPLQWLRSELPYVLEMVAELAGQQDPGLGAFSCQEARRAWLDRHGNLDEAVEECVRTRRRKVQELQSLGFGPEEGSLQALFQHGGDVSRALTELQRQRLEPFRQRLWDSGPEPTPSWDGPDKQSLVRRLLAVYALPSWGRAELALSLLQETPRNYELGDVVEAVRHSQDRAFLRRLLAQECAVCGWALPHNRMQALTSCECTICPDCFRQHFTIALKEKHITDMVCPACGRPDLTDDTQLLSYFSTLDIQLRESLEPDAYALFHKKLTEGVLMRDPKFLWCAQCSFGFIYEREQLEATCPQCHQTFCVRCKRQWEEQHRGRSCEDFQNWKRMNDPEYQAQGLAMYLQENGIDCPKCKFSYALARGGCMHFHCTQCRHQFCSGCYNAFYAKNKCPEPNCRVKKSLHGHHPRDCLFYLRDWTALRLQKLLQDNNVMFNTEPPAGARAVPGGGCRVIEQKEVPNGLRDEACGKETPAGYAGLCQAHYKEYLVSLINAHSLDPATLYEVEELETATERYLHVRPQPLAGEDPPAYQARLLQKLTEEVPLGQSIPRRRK

The target in assay [3] is OTULIN (human (endogenous in MDA-MB-231)) (UniProt Q96BN8). The assay is described as above.

No constants are given. Whether binding was seen depends on the method and setting. Binding seen in cells or lysates may run through a third protein. Some results given as binding are weak or reduced against the parent protein; the word gives no strength.

For the substance “HA-OTULIN WT (from UniProt Q96BN8 1-352) (enzyme)”, the binding result (in assay [1]; with Flag-β-catenin WT) was “binds” in each case. Turning to “HA-OTULIN Y56D (from UniProt Q96BN8 1-352) (enzyme)”, the binding result (in assay [1]; in the assay with Flag-β-catenin WT) was “binds” throughout.

For the substance “OTULIN (from UniProt Q96BN8 1-352) (enzyme)”, the binding result in assay [2] was “binds”. “c-Abl (from UniProt P00519 1-1130) (enzyme)”: in assay [3], the binding result is recorded as “binds”. For “linear ubiquitin assembly complex (LUBAC) (from UniProt Q96EP0 1-1072; Q9BYM8 1-510; Q9H0F6 1-387)”, the binding entry in assay [2] is “binds”.

(Values after article PMC7414915.)
